For the test, the target named is Telomerase Associated Protein 1 (human (endogenous in patient-derived GSCs)) (UniProt Q99973). The experiment in a line: co-IP; co-IP and blot (Figure 4k: TEP1 with KEAP1; Figure 4l: KEAP1 with NRF2 in TEP1 knock-down versus control groups); co-IP not described in the methods.

Results are given in words; binding and its absence hold for the method and conditions named. Binding seen in cells or lysates may run through a third protein. Some results given as binding are weak or reduced against the parent protein; the word gives no strength.

Regarding “Kelch Like ECH Associated Protein 1 (from UniProt Q14145 1-624)”, the binding result was “binds”.

For the origin of these results see PMC12207318.
